PubChem BioAssay AID504784, Drosophila RNAi Screening Center | 2011

Purpose: 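Fly genes whose silencing alters how much lipid cells keep in droplets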 (primary screen)
System: Drosophila Kc167 embryonic cells
Reagents: long dsRNA against Drosophila genes, about 250 ng dsRNA per well
Timing: 4 days
Treatment: cells fed 400 µM oleic acid bound to BSA
Read-out: 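Cells imaged and segmented; ratio of lipid droplet area to nuclear area, log-transformed, then normalised as a B-score over the screen; higher means more stored lipid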
Reading the numbers: droplet/nuclear area B-score: higher = more stored lipid (overstorage)
The deposit covers about 17,000 reagents; shown is a random part of those with a known target gene and a result. 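Each column is one replicate's B-score; the combined score over replicates was not deposited, so single values may mislead.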 Names joined by + are all predicted targets of the reagent. Further read-outs or replicates are left out here.

With CG16704, how do the results read?
droplet/nuclear area B-score, replicate 1: -0.807

For Vps52 (Vacuolar protein sorting 52), what does the deposit list?
droplet/nuclear area B-score, replicate 1: 1.06

What did the screen give for Obp99b (Odorant-binding protein 99b)?
droplet/nuclear area B-score, replicate 1: -0.478

Which result is listed for CG6465?
droplet/nuclear area B-score, replicate 1: -0.223

For Kdsr (3-ketodihydrosphingosine reductase), what was measured?
droplet/nuclear area B-score, replicate 1: 0.755

For CG1074, how do the results read?
droplet/nuclear area B-score, replicate 1: -2.71

Which result is listed for Obp73a (Odorant-binding protein 73a)?
droplet/nuclear area B-score, replicate 1: 0.303

What did the screen give for ghi (ghiberti)?
droplet/nuclear area B-score, replicate 1: -0.581

For CG18278 + CG30059, what does the deposit list?
droplet/nuclear area B-score, replicate 1: 2.27

What did the screen give for CG7912?
droplet/nuclear area B-score, replicate 1: -0.478

For CG10560, what was measured?
droplet/nuclear area B-score, replicate 1: -2.51

Which result is listed for CG40005 (retired record) + cta?
droplet/nuclear area B-score, replicate 1: 3

With CG31533, what was measured?
droplet/nuclear area B-score, replicate 1: 0.0891

For CG4332, what does the deposit list?
droplet/nuclear area B-score, replicate 1: -0.993

For CG6454, how do the results read?
droplet/nuclear area B-score, replicate 1: -0.407

With CG7991, what does the deposit list?
droplet/nuclear area B-score, replicate 1: -0.618

Not a retest: entries from further up.
CG10560: droplet/nuclear area B-score, replicate 1 = -2.51
CG40005 (retired record) + cta: droplet/nuclear area B-score, replicate 1 = 3
